Source: patent US20230037911A1
Results are given in words; binding and its absence hold for the method and conditions named. Some results given as binding are weak or reduced against the parent protein; the word gives no strength. For part of these data: Where a sequence is shown, tags or fusion partners need not be part of it.

T1: recombinant human TIGIT extra cellular domain (ECD) protein (human) (UniProt Q495A1)
T1 sequence: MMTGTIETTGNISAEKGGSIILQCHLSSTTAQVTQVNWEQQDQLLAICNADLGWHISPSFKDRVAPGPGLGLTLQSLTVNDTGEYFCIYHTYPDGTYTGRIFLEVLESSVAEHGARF


Legend:
[1] = molecular target: recombinant cynomolgus TIGIT (cyno-TIGIT ECD) (cynomolgus monkey); assay: ELISA
[2] = molecular target: recombinant cynomolgus TIGIT (cyno-TIGIT ECD) (cynomolgus monkey); assay: ELISA, recombinant cyno-TIGIT
[3] = molecular target: recombinant cynomolgus TIGIT (cyno-TIGIT ECD) (cynomolgus monkey); assay: ELISA on recombinant cyno-TIGIT
[4] = molecular target: recombinant cynomolgus TIGIT (cyno-TIGIT ECD) (cynomolgus monkey); assay: ELISA, VHH in supernatant
[5] = molecular target: T1, recombinant human TIGIT extra cellular domain (ECD) protein (human); assay: ELISA, VHH in supernatant on h-TIGIT ECD coated plates

binding [4]	Binder	further results
binds	6D12 VHH (VHH) VHH: QVQLVESGGGVVQPGRSLRLSCAASGPSFSTYPMGWFRQAPGKERESVAAISSDGVFTYYADSVKGRFTISRDNSKNTLYLQMNSLRAEDTAVYYCAARDSGSGYYSREQWYDYWGQGTLVTVSS	
binds	6D8 VHH (VHH) VHH: QVQLVESGGGVVQPGRSLRLSCAASGPSFSSKPMGWFRQAPGKERESVAARSSDGRFTYYADSVKGRFTISRDNSKNTLYLQMNSLRAEDTAVYYCAARDSGSGRYSRAQWYDYWGQGTLVTVSS	
binds	1A8 VHH (VHH) VHH: QVQLVESGGGVVQPGRSLRLSCAASGPSFSSYPMGWFRQAPGKERESVAAISSRGRFTYYADSVKGRFTISRDNSKNTLYLQMNSLRAEDTAVYYCAARDSGSGYYSRAQWYDYWGQGTLVTVSS	
binds	1A10 VHH (VHH) VHH: QVQLVESGGGVVQPGRSLRLSCAASGNSFSSYPMGWFRQAPGKERESVAAISSDGRFSYYADSVKGRFTISRDNSKNTLYLQMNSLRAEDTAVYYCACRDSGSGYYSRAQWYDYWGQGTLVTVSS	
binds	1C7 VHH (VHH) VHH: QVQLVESGGGVVQPGRSLRLSCAASGPSFSSYPMGWFRQAPGKERESVAAISSRGRFTYYADSVKGRFTISRDNSKNTLYLQMNSLRAEDTAVYYCAARGSGSGYYSRAQWYDYWGQGTLVTVSS	
binds	1D11 VHH (VHH) VHH: QVQLVESGGGVVQPGRSLRLSCAASGPSFSSSPMGWFRQAPGKERESVAAISSMGRFTYYADSVKGRFTISRDNSKNTLYLQMNSLRAEDTAVYYCAARDSGSGYYSRAQWYDYWGQGTLVTVSS	
binds	5E8 VHH (VHH) VHH: QVQLVESGGGVVQPGRSLRLSCAASGPSFSSYPMGWFRQAPGKERESVAAQSSDGRFTYYADSVKGRFTISRDNSKNTLYLQMNSLRAEDTAVYYCAARDSGSGYYSRAQWYDYWGQGTLVTVSS	
binds	5G10 VHH (VHH) VHH: QVQLVESGGGVVQPGRSLRLSCAASGPRFSSYPMGWFRQAPGKERESVAAISSDGRFTYYADSVKGRFTISRDNSKNTLYLQMNSLRAEDTAVYYCAARDSGSGYYSRAQWYDGWGQGTLVTVSS	
binds	2A3 VHH (VHH) VHH: QVQLVESGGGVVQPGRSLRLSCAASGGSFSSYPMGWFRQAPGKERESVAAISSDMRFTYYADSVKGRFTISRDNSKNTLYLQMNSLRAEDTAVYYCAARDSGVGYYSRAQWYDYWGQGTLVTVSS	

Continued, binder first:

Binder	binding [4]	further results
Bivalent 2A3 antibody (2A3-Fc), 2A3 VHH with human IgG1 CH2 and CH3 domains (Fc fusion, not shown: a dimerising Fc or GST) QVQLVESGGGVVQPGRSLRLSCAASGGSFSSYPMGWFRQAPGKERESVAAISSDMRFTYYADSVKGRFTISRDNSKNTLYLQMNSLRAEDTAVYYCAARDSGVGYYSRAQWYDYWGQGTLVTVSS		binding [1]: binds; binding [2]: binds; binding [3]: binds
5B5 VHH (VHH) VHH: QVQLVESGGGVVQPGRSLRLSCAASGPSFSSYPMGWFRQAPGKERESVAAISSDTRFTYYADSVKGRFTISRDNSKNTLYLQMNSLRAEDTAVYYCAARDSGSGYYSRAQWYDRWGQGTLVTVSS	binds	
1G1-1C12 VHH (VHH) VHH: QVQLVESGGGVVQPGRSLRLSCAASGPSFSSYPMGWFRQAPGKERESVAAISSDLRFTYYADSVKGRFTISRDNSKNTLYLQMNSLRAEDTAVYYCAARDSGSGYYSRKQWYDYWGQGTLVTVSS	binds	
6B11 VHH (VHH) VHH: QVQLVESGGGVVQPGRSLRLSCAASGPSFPSYPMGWFRQAPGKERESVAAISSRGRFTYYADSVKGRFTISRDNSKNTLYLQMNSLRAEDTAVYYCAARDSGSGYYSRLQWYDYWGQGTLVTVSS	binds	
6E9 VHH (VHH) VHH: QVQLVESGGGVVQPGRSLRLSCAASGPSRSSYPMGWFRQAPGKERESVAAISSDGKFTYYADSVKGRFTISRDNSKNTLYLQMNSLRAEDTAVYYCAARDSGSGYYSRANWYDYWGQGTLVTVSS	binds	
6F12 VHH (VHH) VHH: QVQLVESGGGVVQPGRSLRLSCAASGPSFTSYPMGWFRQAPGKERESVAAISSDGRFKYYADSVKGRFTISRDNSKNTLYLQMNSLRAEDTAVYYCAAEDSGSGYYSRAQWYDYWGQGTLVTVSS	binds	
7B11 VHH (VHH) VHH: QVQLVESGGGVVQPGRSLRLSCAASGPSFLIYPMGWFRQAPGKERESVAAISSDGRFWYYADSVKGRFTISRDNSKNTLYLQMNSLRAEDTAVYYCAARDSGSGYYSRVQWYDYWGQGTLVTVSS	binds	
2D5 VHH (VHH) VHH: QVQLVESGGGVVQPGRSLRLSCAASGPSFSSSPMGWFRQAPGKERESVAAISWDGRFTYYADSVKGRFTISRDNSKNTLYLQMNSLRAEDTAVYYCAARDSGSGYYSRAQWYVYWGQGTLVTVSS	binds	
2A5 VHH (VHH) VHH: QVQLVESGGGVVQPGRSLRLSCAASGPSFSSYPMGWFRQAPGKERESVAAISSVGRFTYYADSVKGRFTISRDNSKNTLYLQMNSLRAEDTAVYYCAARDSGSGYYSRWQWYDYWGQGTLVTVSS	binds	
2C5 VHH (VHH) VHH: QVQLVESGGGVVQPGRSLRLSCAASGPSFSTYPMGWFRQAPGKERESVAAISSQGRFTYYADSVKGRFTISRDNSKNTLYLQMNSLRAEDTAVYYCAARDSGSGYYSRAQWYDYWGQGTLVTVSS	binds	
2A6 VHH (VHH) VHH: QVQLVESGGGVVQPGRSLRLSCAASGPSFSLYPMGWFRQAPGKERESVAAISSDRRFTYYADSVKGRFTISRDNSKNTLYLQMNSLRAEDTAVYYCAARDSGSGYYSRAQWYDYWGQGTLVTVSS	binds	
7F6 VHH (VHH) VHH: QVQLVESGGGVVQPGRSLRLSCAASGPMFSSYPMGWFRQAPGKERESVAAISSDPRFTYYADSVKGRFTISRDNSKNTLYLQMNSLRAEDTAVYYCAARDSGSGYYSRAQWYDYWGQGTLVTVSS	binds	
10H5 VHH (VHH) VHH: GGGLVQAGGSLRLACTASDPPFANYETTFKSMAMGWVRHIPGKERELVAATNYNGGRTWYSNSAKARSTISRDNAKNTVYLQMSSLKPEDTAVYYCAAKATEGTTFPSRTYEFWGQGIQVTVSS		binding [5]: binds
